No constants are given. Whether binding was seen depends on the method and setting. In cells and extracts the contact can be indirect. Binding calls can cover weak binding; strength is not graded here.
What was measured:
Experiment in all cases: co-IP; capture antibodies against aggrecan, brevican, neurocan or HAPLN1 on Dynabeads Protein A and G; 500 µg brain homogenate of C57BL/6J mice (0.5% Triton X-100 extract) overnight at 4 °C; eluate blotted with pan tau antibody; Mapt KO homogenate as negative control
[1] = target: aggrecan (mouse (endogenous in C57BL/6J brain)) (UniProt Q61282)
[2] = target: brevican (mouse (endogenous in C57BL/6J brain)) (UniProt Q61361)
[3] = target: T1, hyaluronan and proteoglycan link protein 1 (HAPLN1) (mouse (endogenous in C57BL/6J brain)) (UniProt Q9QUP5)
T1 sequence: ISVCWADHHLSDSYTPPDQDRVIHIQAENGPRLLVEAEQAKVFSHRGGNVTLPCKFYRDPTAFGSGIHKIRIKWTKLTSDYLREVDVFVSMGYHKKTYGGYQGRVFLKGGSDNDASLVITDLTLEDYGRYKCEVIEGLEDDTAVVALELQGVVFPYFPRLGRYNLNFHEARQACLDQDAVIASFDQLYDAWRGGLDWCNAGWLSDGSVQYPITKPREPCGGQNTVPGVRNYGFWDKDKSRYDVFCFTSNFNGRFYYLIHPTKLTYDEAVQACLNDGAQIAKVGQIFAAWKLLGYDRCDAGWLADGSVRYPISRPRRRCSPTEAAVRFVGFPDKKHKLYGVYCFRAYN

Chains of the proteins cited; added tags and fusions are not shown. Residues count along the entry.
UniProt Q61282, residues 20-2132: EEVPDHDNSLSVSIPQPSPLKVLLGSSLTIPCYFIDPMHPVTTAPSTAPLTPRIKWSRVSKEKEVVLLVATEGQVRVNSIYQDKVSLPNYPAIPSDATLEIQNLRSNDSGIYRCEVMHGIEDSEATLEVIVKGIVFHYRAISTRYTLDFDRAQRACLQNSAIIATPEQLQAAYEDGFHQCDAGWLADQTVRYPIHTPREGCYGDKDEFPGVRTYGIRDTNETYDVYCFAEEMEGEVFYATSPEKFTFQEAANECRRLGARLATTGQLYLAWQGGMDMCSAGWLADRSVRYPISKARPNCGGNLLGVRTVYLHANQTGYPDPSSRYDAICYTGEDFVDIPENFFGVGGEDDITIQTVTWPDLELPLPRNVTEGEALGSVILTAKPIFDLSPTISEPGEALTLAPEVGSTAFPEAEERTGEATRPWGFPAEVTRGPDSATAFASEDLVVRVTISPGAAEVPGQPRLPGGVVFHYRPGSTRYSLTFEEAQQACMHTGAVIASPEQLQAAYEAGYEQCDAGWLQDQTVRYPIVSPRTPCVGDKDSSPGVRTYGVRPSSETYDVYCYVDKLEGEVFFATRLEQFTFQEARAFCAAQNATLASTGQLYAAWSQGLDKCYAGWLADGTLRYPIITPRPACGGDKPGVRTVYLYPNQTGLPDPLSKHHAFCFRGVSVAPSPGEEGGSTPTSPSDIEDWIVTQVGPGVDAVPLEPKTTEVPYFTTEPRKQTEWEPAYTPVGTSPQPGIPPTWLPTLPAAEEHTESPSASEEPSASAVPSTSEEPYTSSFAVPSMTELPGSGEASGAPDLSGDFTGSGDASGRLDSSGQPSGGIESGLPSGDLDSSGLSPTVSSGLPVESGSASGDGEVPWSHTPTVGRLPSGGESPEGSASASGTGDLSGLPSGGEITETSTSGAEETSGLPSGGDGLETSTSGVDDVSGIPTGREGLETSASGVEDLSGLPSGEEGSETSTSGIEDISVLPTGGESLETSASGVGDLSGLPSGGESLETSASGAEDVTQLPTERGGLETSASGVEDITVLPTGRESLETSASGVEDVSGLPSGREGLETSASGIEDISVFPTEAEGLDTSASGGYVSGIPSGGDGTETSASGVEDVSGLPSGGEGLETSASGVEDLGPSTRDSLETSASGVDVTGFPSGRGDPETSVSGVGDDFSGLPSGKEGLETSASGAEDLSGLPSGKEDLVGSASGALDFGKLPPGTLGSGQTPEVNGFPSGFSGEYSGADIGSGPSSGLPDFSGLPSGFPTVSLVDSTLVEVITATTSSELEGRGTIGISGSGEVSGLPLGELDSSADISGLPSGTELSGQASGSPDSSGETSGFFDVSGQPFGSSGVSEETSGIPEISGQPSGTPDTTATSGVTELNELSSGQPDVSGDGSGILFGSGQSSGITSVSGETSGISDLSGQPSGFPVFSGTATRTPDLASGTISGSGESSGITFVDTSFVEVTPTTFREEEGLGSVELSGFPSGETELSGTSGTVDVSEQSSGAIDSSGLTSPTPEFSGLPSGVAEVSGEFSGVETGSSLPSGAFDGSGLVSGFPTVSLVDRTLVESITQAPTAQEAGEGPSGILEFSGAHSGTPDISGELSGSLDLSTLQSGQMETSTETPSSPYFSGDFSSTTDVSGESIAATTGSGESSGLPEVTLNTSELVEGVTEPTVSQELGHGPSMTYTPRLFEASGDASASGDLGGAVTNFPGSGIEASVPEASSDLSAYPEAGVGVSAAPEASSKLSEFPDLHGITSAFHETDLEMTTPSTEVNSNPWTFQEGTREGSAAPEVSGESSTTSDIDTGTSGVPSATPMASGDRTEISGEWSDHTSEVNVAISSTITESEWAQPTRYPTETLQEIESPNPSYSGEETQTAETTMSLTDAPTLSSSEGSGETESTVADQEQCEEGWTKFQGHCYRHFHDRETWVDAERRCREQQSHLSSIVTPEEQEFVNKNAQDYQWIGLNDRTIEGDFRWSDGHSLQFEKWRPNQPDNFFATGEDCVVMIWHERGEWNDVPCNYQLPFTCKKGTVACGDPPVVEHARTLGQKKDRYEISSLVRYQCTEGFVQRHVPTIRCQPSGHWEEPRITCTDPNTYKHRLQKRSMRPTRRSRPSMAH
UniProt Q61361, residues 23-883: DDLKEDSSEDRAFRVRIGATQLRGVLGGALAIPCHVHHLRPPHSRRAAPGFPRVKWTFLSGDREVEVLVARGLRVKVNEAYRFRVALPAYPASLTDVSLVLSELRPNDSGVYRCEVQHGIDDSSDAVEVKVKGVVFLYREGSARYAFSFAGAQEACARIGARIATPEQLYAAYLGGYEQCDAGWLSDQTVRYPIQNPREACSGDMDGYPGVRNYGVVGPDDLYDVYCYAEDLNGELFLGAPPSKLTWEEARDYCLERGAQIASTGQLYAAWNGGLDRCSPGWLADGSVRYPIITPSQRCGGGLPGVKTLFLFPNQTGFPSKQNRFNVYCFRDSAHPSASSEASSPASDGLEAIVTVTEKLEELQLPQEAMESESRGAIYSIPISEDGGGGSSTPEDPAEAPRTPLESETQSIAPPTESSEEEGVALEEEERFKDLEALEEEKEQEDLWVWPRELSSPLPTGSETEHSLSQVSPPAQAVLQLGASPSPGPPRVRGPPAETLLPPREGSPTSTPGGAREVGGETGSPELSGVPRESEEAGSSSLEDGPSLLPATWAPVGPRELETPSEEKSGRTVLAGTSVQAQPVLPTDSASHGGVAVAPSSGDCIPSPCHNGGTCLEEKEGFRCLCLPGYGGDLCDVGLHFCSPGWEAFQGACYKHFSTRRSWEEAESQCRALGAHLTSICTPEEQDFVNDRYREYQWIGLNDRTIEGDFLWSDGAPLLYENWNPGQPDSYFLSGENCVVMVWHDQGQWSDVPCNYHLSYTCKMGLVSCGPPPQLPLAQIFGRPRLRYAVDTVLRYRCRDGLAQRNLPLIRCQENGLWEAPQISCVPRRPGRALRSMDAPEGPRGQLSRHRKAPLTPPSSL
UniProt P55066, residues 23-1268: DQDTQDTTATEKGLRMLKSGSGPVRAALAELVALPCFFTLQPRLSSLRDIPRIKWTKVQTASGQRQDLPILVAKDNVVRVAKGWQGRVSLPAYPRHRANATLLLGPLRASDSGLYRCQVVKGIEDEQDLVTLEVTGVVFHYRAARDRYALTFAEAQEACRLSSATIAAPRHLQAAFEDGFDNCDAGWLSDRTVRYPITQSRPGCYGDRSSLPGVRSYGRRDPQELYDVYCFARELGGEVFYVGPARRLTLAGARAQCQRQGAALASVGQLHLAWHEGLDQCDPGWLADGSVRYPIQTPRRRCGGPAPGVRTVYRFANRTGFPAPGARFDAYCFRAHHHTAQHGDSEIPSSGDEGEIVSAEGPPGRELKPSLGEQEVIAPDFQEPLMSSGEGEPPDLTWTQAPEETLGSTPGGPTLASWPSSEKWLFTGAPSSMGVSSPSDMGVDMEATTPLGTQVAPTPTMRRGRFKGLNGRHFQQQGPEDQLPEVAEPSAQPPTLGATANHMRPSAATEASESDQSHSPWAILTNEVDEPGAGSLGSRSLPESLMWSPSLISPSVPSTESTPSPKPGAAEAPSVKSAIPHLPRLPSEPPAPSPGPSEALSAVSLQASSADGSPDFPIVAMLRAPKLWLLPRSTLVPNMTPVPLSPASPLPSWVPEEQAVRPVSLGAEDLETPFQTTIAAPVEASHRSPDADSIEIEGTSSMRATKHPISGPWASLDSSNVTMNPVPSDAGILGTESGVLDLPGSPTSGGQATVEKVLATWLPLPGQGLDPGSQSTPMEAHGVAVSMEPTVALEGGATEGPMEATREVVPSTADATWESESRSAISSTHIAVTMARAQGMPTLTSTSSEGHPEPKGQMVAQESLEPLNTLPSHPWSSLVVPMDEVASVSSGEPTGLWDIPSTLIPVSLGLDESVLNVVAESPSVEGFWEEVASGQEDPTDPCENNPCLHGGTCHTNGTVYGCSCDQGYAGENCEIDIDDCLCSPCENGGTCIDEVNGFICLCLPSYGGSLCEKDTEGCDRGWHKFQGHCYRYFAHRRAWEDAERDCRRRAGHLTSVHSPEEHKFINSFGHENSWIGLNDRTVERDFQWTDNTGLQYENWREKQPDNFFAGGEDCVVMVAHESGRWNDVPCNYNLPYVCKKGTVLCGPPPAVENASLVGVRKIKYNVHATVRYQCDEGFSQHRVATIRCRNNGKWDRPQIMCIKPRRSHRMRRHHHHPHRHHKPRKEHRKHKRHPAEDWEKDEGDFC

[4] = target: neurocan (mouse (endogenous in C57BL/6J brain)) (UniProt P55066)

Measured: binding

tau protein (endogenous murine tau) (from UniProt P10637-2)
binds: all assays above

From article PMC9027016
